Test results reported in paper PMC10170703.

What was measured:
Assay in all cases: two-hybrid; GAL4-based, pGADT7 preys and pGBKT7 baits in Y2HGold; growth on SD/-LT and SD/-LTHA
[1] = target: T1, BD-RPP1_NdA TIR domain (residues 1-254) (A. thaliana) (UniProt F4J339)
T1 sequence: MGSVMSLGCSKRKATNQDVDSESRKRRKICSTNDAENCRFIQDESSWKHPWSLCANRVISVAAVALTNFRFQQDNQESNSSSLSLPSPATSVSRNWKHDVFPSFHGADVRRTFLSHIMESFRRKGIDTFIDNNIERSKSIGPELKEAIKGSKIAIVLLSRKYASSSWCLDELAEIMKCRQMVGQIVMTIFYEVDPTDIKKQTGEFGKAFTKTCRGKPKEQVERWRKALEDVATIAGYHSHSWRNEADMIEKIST

[2] = target: T2, BD-L6 TIR domain (residues 29-248) (UniProt Q40253)
T2 sequence: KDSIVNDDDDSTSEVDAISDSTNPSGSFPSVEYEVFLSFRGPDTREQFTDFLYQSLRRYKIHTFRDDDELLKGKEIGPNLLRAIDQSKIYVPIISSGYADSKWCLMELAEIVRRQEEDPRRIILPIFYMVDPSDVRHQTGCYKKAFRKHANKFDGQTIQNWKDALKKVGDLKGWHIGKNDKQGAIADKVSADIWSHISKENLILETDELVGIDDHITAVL

[3] = target: T3, BD-RPS4 TIR domain (residues 1-183) (UniProt Q9XGM3)
T3 sequence: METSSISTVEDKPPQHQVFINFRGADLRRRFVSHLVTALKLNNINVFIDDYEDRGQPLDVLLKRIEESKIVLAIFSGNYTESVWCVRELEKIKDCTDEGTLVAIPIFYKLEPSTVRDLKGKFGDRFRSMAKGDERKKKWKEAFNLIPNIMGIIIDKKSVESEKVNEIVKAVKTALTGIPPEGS

Measured: binding

AD-TIRP1 (G. hirsutum TIR domain partner protein 1, two-hybrid prey) (Gossypium hirsutum)
no binding: all assays above

No constants are given. Whether binding was seen depends on the method and setting. Sequences can lack the tags named with a protein.
